Data as given in PubChem BioAssay AID504744 (Drosophila RNAi Screening Center, 2011).

Aim: 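Find genes whose loss alters insulin-driven dAkt phosphorylation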 (primary screen)
Cell system: Drosophila Kc167 cells
Reagent: long dsRNA against Drosophila genes, 250 ng dsRNA per well of a 384-well plate
Time to read-out: 3 days of knock-down, then overnight serum-free starvation before stimulation
Treatment: bovine insulin at 387 nM for 10 minutes after 12 h without serum
Measured: 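In-cell antibody fluorescence for phospho-dAkt in each well over DNA-dye signal, with log2 residuals expressed as z-scores adjusted for cell count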
Hit rule: 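Hit in the insulin screen when the two-replicate mean z-score is more extreme than plus or minus 2.5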
The deposit covers about 23,000 reagents; below is an unselected part of those with a known target gene and a result. In the full data, 98 (0.43%) were called active. 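Only hit calls are given; the phospho-dAkt signals, z-scores and hit direction were not deposited.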 A plus sign joins genes that one reagent is predicted to hit.

Gat (GABA transporter) [DRSC17144] — activity call = inactive
SLC22A (SLC22A family member) [DRSC11826] — activity call = inactive
SLC22A (SLC22A family member) [DRSC11827] — activity call = inactive
PIG-X (Phosphatidylinositol glycan anchor biosynthesis class X) [DRSC22721] — activity call = inactive
CG32668 [DRSC18879] — activity call = inactive
Obp8a (Odorant-binding protein 8a) [DRSC17868] — activity call = inactive
Doc3 (Dorsocross3) [DRSC10480] — activity call = inactive
CG6066 [DRSC15959] — activity call = inactive
CG6066 [DRSC22228] — activity call = inactive
CG13471 [DRSC10015] — activity call = inactive
Mvk + CG33672 + spt4 [DRSC05356] — activity call = inactive
Mvk + CG33672 + spt4 [DRSC06628] — activity call = inactive

Next part; the last 3 above are carried over.
CG13471 [DRSC10015] — activity call = inactive
Mvk + CG33672 + spt4 [DRSC05356] — activity call = inactive
Mvk + CG33672 + spt4 [DRSC06628] — activity call = inactive
Rbp (RIM-binding protein) [DRSC15724] — activity call = inactive
Rbp (RIM-binding protein) [DRSC15726] — activity call = inactive
CG6893 [DRSC10742] — activity call = inactive
CG4462 [DRSC15583] — activity call = inactive
Ctr9 [DRSC08562] — activity call = inactive
cn (cinnabar) [DRSC07594] — activity call = inactive
ind (intermediate neuroblasts defective) [DRSC11355] — activity call = inactive
beta-Man (beta-Mannosidase) [DRSC12208] — activity call = inactive
beta-Man (beta-Mannosidase) [DRSC12209] — activity call = inactive
CR40441 (pseudo) [DRSC22916] — activity call = inactive
mira (miranda) [DRSC16998] — activity call = inactive
